The effect of the compound repeats well; differences between the knockouts mostly do not.
System: HCC-38
Assay: relative cell number vs DMSO control (72 h) (% of DMSO); higher = less growth inhibition (more cells)
Protocol: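 QMAP-Seq: a pool of 5 breast cancer cell lines (ZR-75-1, SKBR3, HCC-38, MDA-MB-231, BT-20), each carrying 12 doxycycline-inducible Cas9 sgRNA perturbations (11 knockouts plus non-targeting sgNT), was treated with compounds for 72 h at four 10-fold doses (10 nM-10 uM or 1 nM-1 uM range). Barcodes were amplified and sequenced, and cell number was interpolated from 293T spike-in standard curves. The result is expressed as % of the median of DMSO wells. Two biological replicates.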

FC(F)c1nc2ccccc2n1-c1nc(N2CCOCC2)nc(N2CCOCC2)n1 [ZSTK474]
Conditions | relative cell number
sgRNA knockout: sgATF3, 10 nM | 92.3
sgRNA knockout: sgATF3, 100 nM | 91.9
sgRNA knockout: sgATF3, 1000 nM | 80
sgRNA knockout: sgATF3, 10000 nM | 55.6
sgRNA knockout: sgATF4, 10 nM | 95.5
sgRNA knockout: sgATF4, 100 nM | 91.62
sgRNA knockout: sgATF4, 1000 nM | 75.7
sgRNA knockout: sgATF4, 10000 nM | 58.6
sgRNA knockout: sgATF6, 10 nM | 98
sgRNA knockout: sgATF6, 100 nM | 104
sgRNA knockout: sgATF6, 1000 nM | 67.2
sgRNA knockout: sgATF6, 10000 nM | 57.9
sgRNA knockout: sgATG7, 10 nM | 100
sgRNA knockout: sgATG7, 100 nM | 101.8
sgRNA knockout: sgATG7, 1000 nM | 77.99
sgRNA knockout: sgATG7, 10000 nM | 56.8
sgRNA knockout: sgERN1, 10 nM | 89.4
sgRNA knockout: sgERN1, 100 nM | 93.8
sgRNA knockout: sgERN1, 1000 nM | 86.2
sgRNA knockout: sgERN1, 10000 nM | 67.8
sgRNA knockout: sgHSF1, 10 nM | 77.4
sgRNA knockout: sgHSF1, 100 nM | 98.6
sgRNA knockout: sgHSF1, 1000 nM | 79.7
sgRNA knockout: sgHSF1, 10000 nM | 67.4
sgRNA knockout: sgHSF2, 10 nM | 93.3
sgRNA knockout: sgHSF2, 100 nM | 113
sgRNA knockout: sgHSF2, 1000 nM | 71
sgRNA knockout: sgHSF2, 10000 nM | 60.5
sgRNA knockout: sgKEAP1, 10 nM | 84.2
sgRNA knockout: sgKEAP1, 100 nM | 107
sgRNA knockout: sgKEAP1, 1000 nM | 68.5
sgRNA knockout: sgKEAP1, 10000 nM | 69.4
sgRNA knockout: sgNFE2L2, 10 nM | 101
sgRNA knockout: sgNFE2L2, 100 nM | 96
sgRNA knockout: sgNFE2L2, 1000 nM | 75.6
sgRNA knockout: sgNFE2L2, 10000 nM | 56.7
sgRNA knockout: sgSLC35F2, 10 nM | 101
sgRNA knockout: sgSLC35F2, 100 nM | 97.3
sgRNA knockout: sgSLC35F2, 1000 nM | 80.7
sgRNA knockout: sgSLC35F2, 10000 nM | 57.8
sgRNA knockout: sgXBP1, 10 nM | 95
sgRNA knockout: sgXBP1, 100 nM | 99.9
sgRNA knockout: sgXBP1, 1000 nM | 78.8
sgRNA knockout: sgXBP1, 10000 nM | 59.8

CC(C)[C@]12O[C@H]1[C@@H]1O[C@]13[C@]1(O[C@H]1C[C@H]1C4=C(CC[C@@]13C)C(=O)OC4)[C@@H]2O [Triptolide]
Conditions | relative cell number
sgRNA knockout: sgATF3, 1 nM | 105
sgRNA knockout: sgATF3, 10 nM | 57.7
sgRNA knockout: sgATF3, 100 nM | 23.4
sgRNA knockout: sgATF3, 1000 nM | 17.2
sgRNA knockout: sgATF4, 1 nM | 96.2
sgRNA knockout: sgATF4, 10 nM | 67.9
sgRNA knockout: sgATF4, 100 nM | 25.3
sgRNA knockout: sgATF4, 1000 nM | 19
sgRNA knockout: sgATF6, 1 nM | 98.9
sgRNA knockout: sgATF6, 10 nM | 53.6
sgRNA knockout: sgATF6, 100 nM | 20.1
sgRNA knockout: sgATF6, 1000 nM | 17.6
sgRNA knockout: sgATG7, 1 nM | 99.6
sgRNA knockout: sgATG7, 10 nM | 65.4
sgRNA knockout: sgATG7, 100 nM | 22.1
sgRNA knockout: sgATG7, 1000 nM | 18.1
sgRNA knockout: sgERN1, 1 nM | 103
sgRNA knockout: sgERN1, 10 nM | 56.4
sgRNA knockout: sgERN1, 100 nM | 23.3
sgRNA knockout: sgERN1, 1000 nM | 18.2
sgRNA knockout: sgHSF1, 1 nM | 94
sgRNA knockout: sgHSF1, 10 nM | 54.8
sgRNA knockout: sgHSF1, 100 nM | 20.7
sgRNA knockout: sgHSF1, 1000 nM | 19.1
sgRNA knockout: sgHSF2, 1 nM | 105
sgRNA knockout: sgHSF2, 10 nM | 62.1
sgRNA knockout: sgHSF2, 100 nM | 25.6
sgRNA knockout: sgHSF2, 1000 nM | 16.2
sgRNA knockout: sgKEAP1, 1 nM | 91.5
sgRNA knockout: sgKEAP1, 10 nM | 51.13
sgRNA knockout: sgKEAP1, 100 nM | 28.2
sgRNA knockout: sgKEAP1, 1000 nM | 16.8
sgRNA knockout: sgNFE2L2, 1 nM | 96.5
sgRNA knockout: sgNFE2L2, 10 nM | 60.1
sgRNA knockout: sgNFE2L2, 100 nM | 25
sgRNA knockout: sgNFE2L2, 1000 nM | 19.6
sgRNA knockout: sgSLC35F2, 1 nM | 94.4
sgRNA knockout: sgSLC35F2, 10 nM | 69.3
sgRNA knockout: sgSLC35F2, 100 nM | 26.3
sgRNA knockout: sgSLC35F2, 1000 nM | 18
sgRNA knockout: sgXBP1, 1 nM | 103
sgRNA knockout: sgXBP1, 10 nM | 64.6
sgRNA knockout: sgXBP1, 100 nM | 23.9
sgRNA knockout: sgXBP1, 1000 nM | 18.1

Cc1onc(-c2ccccc2)c1-c1ccc(S(N)(=O)=O)cc1 [Valdecoxib]
Conditions | relative cell number
sgRNA knockout: sgATF3, 10 nM | 114
sgRNA knockout: sgATF3, 100 nM | 88.8
sgRNA knockout: sgATF3, 1000 nM | 98.01
sgRNA knockout: sgATF3, 10000 nM | 86.4
sgRNA knockout: sgATF4, 10 nM | 116
sgRNA knockout: sgATF4, 100 nM | 99.4
sgRNA knockout: sgATF4, 1000 nM | 91.3
sgRNA knockout: sgATF4, 10000 nM | 92.9
sgRNA knockout: sgATF6, 10 nM | 90.6
sgRNA knockout: sgATF6, 100 nM | 102
sgRNA knockout: sgATF6, 1000 nM | 122
sgRNA knockout: sgATF6, 10000 nM | 107.45
sgRNA knockout: sgATG7, 10 nM | 108
sgRNA knockout: sgATG7, 100 nM | 99.3
sgRNA knockout: sgATG7, 1000 nM | 96.6
sgRNA knockout: sgATG7, 10000 nM | 94.1
sgRNA knockout: sgERN1, 10 nM | 105
sgRNA knockout: sgERN1, 100 nM | 97.7
sgRNA knockout: sgERN1, 1000 nM | 103
sgRNA knockout: sgERN1, 10000 nM | 98.5
sgRNA knockout: sgHSF1, 10 nM | 100
sgRNA knockout: sgHSF1, 100 nM | 105
sgRNA knockout: sgHSF1, 1000 nM | 100
sgRNA knockout: sgHSF1, 10000 nM | 102
sgRNA knockout: sgHSF2, 10 nM | 118
sgRNA knockout: sgHSF2, 100 nM | 97.9
sgRNA knockout: sgHSF2, 1000 nM | 104.2
sgRNA knockout: sgHSF2, 10000 nM | 97.9
sgRNA knockout: sgKEAP1, 10 nM | 100
sgRNA knockout: sgKEAP1, 100 nM | 105
sgRNA knockout: sgKEAP1, 1000 nM | 104.6
sgRNA knockout: sgKEAP1, 10000 nM | 109
sgRNA knockout: sgNFE2L2, 10 nM | 108
sgRNA knockout: sgNFE2L2, 100 nM | 95.7
sgRNA knockout: sgNFE2L2, 1000 nM | 91.7
sgRNA knockout: sgNFE2L2, 10000 nM | 94
sgRNA knockout: sgSLC35F2, 10 nM | 119
sgRNA knockout: sgSLC35F2, 100 nM | 88.3
sgRNA knockout: sgSLC35F2, 1000 nM | 99.5
sgRNA knockout: sgSLC35F2, 10000 nM | 97
sgRNA knockout: sgXBP1, 10 nM | 112
sgRNA knockout: sgXBP1, 100 nM | 98.4
sgRNA knockout: sgXBP1, 1000 nM | 94.2
sgRNA knockout: sgXBP1, 10000 nM | 95.1
